PubChem BioAssay AID1159584 – Peter MacCallum Cancer Centre – 2016

- Purpose: 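Knock-downs that harm CDH1-null cells more than parental MCF10A cells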 (primary screen)
- Cell system: human MCF10A breast epithelial cells, parental and CDH1-null
- Knock-down reagent: siRNA against human genes
- Detection: 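Cell viability by CellTiter-Glo ATP luminescence, each line scaled to the mean of mock wells across plates, then CDH1-null over parental ratio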
- Scale: CDH1-null / parental viability ratio: higher = CDH1-null cells survive relatively better than parental; CDH1-null viability vs mock: higher = more viable CDH1-null cells; parental viability vs mock: higher = more viable parental cells
Here is one part, drawn at random, of about 18,000 reagents. The record does not give: the amount of reagent, the time to read-out.

| gene | CDH1-null / parental viability ratio | CDH1-null viability vs mock (fraction of mock) | parental viability vs mock (fraction of mock) |
| --- | --- | --- | --- |
| EPHX4 | 0.76 | 0.71 | 0.94 |
| CIMIP1 | 0.9 | 0.7 | 0.78 |
| IFNA6 | 1.51 | 0.98 | 0.65 |
| KCTD11 | 1.28 | 0.37 | 0.29 |
| GNG11 | 0.97 | 0.9 | 0.93 |
| NIPSNAP3B | 0.95 | 0.75 | 0.79 |
| DEFB106B | 1.35 | 1.16 | 0.86 |
| RAB11FIP3 | 0.88 | 0.44 | 0.5 |
| SIGLEC9 | 1.01 | 0.99 | 0.98 |
| PNLIPRP2 | 1.11 | 0.84 | 0.76 |
| ELAPOR2 | 0.92 | 0.8 | 0.87 |
| ADGRD1 | 1.48 | 0.89 | 0.6 |
| KRT8 | 1.03 | 1.04 | 1.01 |
| RHOJ | 1.14 | 1.15 | 1.01 |
| JADE2 | 1.04 | 1.03 | 0.99 |
| AZIN1 | 1.26 | 1.06 | 0.84 |
| KCTD4 | 1.19 | 0.93 | 0.78 |
| ATF7IP2 | 0.91 | 0.62 | 0.68 |
| FNDC7 | 0.78 | 0.7 | 0.9 |
| S100A8 | 1.23 | 0.9 | 0.73 |
| MRPL35 | 1.18 | 1.06 | 0.9 |
| SOX18 | 0.98 | 0.78 | 0.8 |
| KRTAP9-3 | 1.31 | 0.68 | 0.52 |
| HMGXB4 | 1.23 | 1.18 | 0.96 |
| TAF7 | 0.79 | 0.6 | 0.76 |
| NEIL2 | 0.93 | 0.84 | 0.9 |
| DNAJC8 | 1.02 | 0.56 | 0.55 |
| RBP4 | 0.63 | 0.47 | 0.75 |
| YRDC | 0.95 | 0.52 | 0.55 |
| RTKN2 | 0.9 | 0.9 | 1 |
| LILRA2 | 1.36 | 0.61 | 0.45 |
| GNA11 | 0.89 | 0.82 | 0.92 |
| CSTA | 1.01 | 0.75 | 0.74 |
| LIAT1 | 1.47 | 0.88 | 0.6 |
| QRICH1 | 1.28 | 0.87 | 0.68 |
| CEP68 | 1.23 | 0.96 | 0.78 |
| ENPP1 | 1.03 | 0.93 | 0.9 |
| OR5M3 | 1.05 | 0.8 | 0.76 |
| HSP90AB1 | 1.04 | 1.01 | 0.97 |
| RASSF8 | 1.44 | 0.36 | 0.25 |
| MTMR7 | 1.59 | 0.92 | 0.58 |
| TBL1XR1 | 1.2 | 1.08 | 0.9 |
| C22orf15 | 1.39 | 0.89 | 0.64 |
| PEF1 | 1.16 | 0.72 | 0.62 |
| CCL15 | 0.76 | 0.6 | 0.79 |
| TFCP2 | 0.95 | 1.04 | 1.09 |

Just “parental viability vs mock (fraction of mock)” (4 entries from above):
KCTD11: 0.29
GNG11: 0.93
NIPSNAP3B: 0.79
DEFB106B: 0.86
